# The whole screen tested about 44,000 compounds, of which fewer than 10 were called active. Inconclusive results, whose numbers are uncertain, are shown with a selection of clear calls. Calls follow the shape of the dose curve; as a rule, active = well fitted inhibition curve with a large enough effect; inconclusive = small, poorly fitted or top-dose-only effect; inactive = flat fitted curve, though single readings scatter. A potency beside an inconclusive call is a rough fit, not a confirmed value.
# Amino acid sequences for entries named in this document (tags omitted). A change or cut given only in a name is not applied to a line headed by its entry.
# UniProt Q99816: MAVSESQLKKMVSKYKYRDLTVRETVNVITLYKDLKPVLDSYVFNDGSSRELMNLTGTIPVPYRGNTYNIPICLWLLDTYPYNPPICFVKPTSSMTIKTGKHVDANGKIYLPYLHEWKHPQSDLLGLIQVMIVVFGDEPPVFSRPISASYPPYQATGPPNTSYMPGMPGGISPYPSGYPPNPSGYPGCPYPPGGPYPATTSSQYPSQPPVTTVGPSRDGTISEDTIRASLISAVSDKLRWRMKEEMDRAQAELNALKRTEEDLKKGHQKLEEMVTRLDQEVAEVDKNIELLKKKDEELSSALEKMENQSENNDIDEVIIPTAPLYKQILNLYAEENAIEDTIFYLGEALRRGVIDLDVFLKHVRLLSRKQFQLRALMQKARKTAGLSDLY
# Target: Tumor susceptibility gene 101 protein (Homo sapiens) (UniProt Q99816)
# Assay: qHTS Validation Assay for Inhibitors of HIV-1 Budding by Blocking the Interaction of PTAP/TSG101: Sytravon Library Screen; as to activity change, negative = inhibition: 0% is about no effect
# Details: Fluorescence polarization, FITC-PTAP peptide/Tsg101, 20 min; activity change, negative = inhibition: at 115 µM (top of the series)
# From the text: Stages of the HIV-1 replication cycle, specifically virus assembly and release, provide underexploited targets for the development of novel antiviral inhibitors. The late stages of HIV-1 replication are mediated by the Gag precursor protein, Pr55Gag. Expression of Pr55Gag is both necessary and sufficient for the production of virus-like particles from Gag-expressing cells. The Gag protein hijacks key host proteins involved in endocytic machinery of the host cell to promote endosomal processing and viral budding. The budding process requires a direct interaction between a […] (PTAP) motif in the p6 domain of Gag and the cellular endosomal sorting protein known as Tsg101. In this way, the Gag PTAP motif promotes the host cells to recruit viral particles to the plasma membrane where the new viral particles are released, effectively turning the host cells into viral factories. A fluorescence polarization assay has been developed to quantitatively measure the PTAP-Tsg101 interaction which can be used to screen for inhibitors of this interaction. This assay was run against the NCGC Sytravon Library collection. NIH Molecular Libraries Probe Production Network [MLPCN] NIH Chemical Genomics Center [NCGC] Grant: R03 MH087464-01A1 PI Name: Dr. Eric Freed, NCI
# Two uL of the Tsg101 binding domain in buffer (10 mM HEPES pH 7.5; 0.15 M NaCl, 0.01% Tween 20; 3 mM EDTA;0.1 mM TCEP) was dispensed into Greiner black MB 1536-well plates (final concentration 10 uM). Then, 23 nL of compounds or DMSO were delivered to each well using a pin tool. Finally, 2 uL of a FITC-labeled peptide containing the PTAP motif (1) in the same buffer was dispensed (50 nM final concentration) and the binding was allowed to proceed for 20 min. at r.t. Fluorescent polarization was determined using FITC excitation and polarized emission filters on a Perkin Elmer Envision. Assay cut-off (positive/negative criteria): Actives defined by CRC class, <25 µM; Efficacy <60% inhibition. The total fluorescent intensity from S and P channels will be used to flag fluorescent compounds.
# Potency is read from the fitted curve at half-maximal effect.
SMILES,"activity change, negative = inhibition",Potency
Cc1ccc(NC(=O)Cn2nc(C(F)(F)F)c3c2CCCC3)cc1,inactive: 1.86%,
COc1ccc(OC)c(S(=O)(=O)Nc2cc3c(cc2C)n(C)c(=O)c(=O)n3C)c1,,"inconclusive: 50.1 µM [inhibitor, partial curve]"
CN1CCc2c(sc(NC(=O)CSc3ccc(F)cc3)c2-c2nc3ccccc3s2)C1,,"inconclusive: 10 µM [inhibitor, full curve, poor fit]"
CC(=O)Nc1ccc(S(=O)(=O)Nc2nc3n(n2)C(c2ccccc2)C=C(c2ccc(Cl)cc2)N3)cc1 (centres undefined),,"inconclusive: 44.7 µM [inhibitor, partial curve]"
Cn1c(=O)c2nc3ccc(NC(=O)C(F)(F)F)cc3nc2n(C)c1=O,,"inconclusive: 39.8 µM [inhibitor, partial curve]"
CCCCOC(=O)c1ccc(NC(=O)/C(C#N)=C/c2ccc(-c3ccccc3)o2)cc1,,"inconclusive: 31.6 µM [inhibitor, full curve]"
Cc1ccc(C2C=C(c3ccc(Cl)cc3)Nc3nc(NS(=O)(=O)c4ccccc4)nn32)cc1 (centres undefined),,"inconclusive: 50.1 µM [inhibitor, partial curve]"
CCN1CCc2c(sc(NC(=O)CSc3ccccc3)c2-c2nc3ccccc3s2)C1,,active: 39.8 µM
Cc1cc(C)cc(NC(=O)Cn2nnc(C(=O)Nc3cc(C)cc(C)c3)c2N)c1,inactive: -1.76%,
Cc1c(C(=O)N(C)c2cccc(C(F)(F)F)c2)sc2nc3n(c(=O)c12)CCCCC3,,active: 44.7 µM
Nc1c(C(=O)Nc2ccc(F)cc2)sc2nc(-c3cccs3)cc(C(F)(F)F)c12,,"inconclusive: 8.91 µM [inhibitor, full curve]"
CCc1cc(=O)oc2c(C)c3c(cc12)CN(CCc1ccccc1)CO3,,"inconclusive: 31.6 µM [inhibitor, full curve, poor fit]"
CCN(C(=O)c1sc2nc3n(c(=O)c2c1C)CCCC3)c1ccccc1F,,"inconclusive: 44.7 µM [inhibitor, partial curve]"
CC(=O)Nc1ccc2nc3c(=O)[nH]c(=O)[nH]c3nc2c1,,"inconclusive: 50.1 µM [inhibitor, partial curve]"
N#C/C(=C\c1ccc(-c2cccc(Cl)c2)o1)C(=O)Nc1cccc(C(F)(F)F)c1,inconclusive: -7.27% [inhibitor],
Cc1ccc2c(c1)-c1c(c(C(=O)N3CCN(c4cc(C)ccc4C)CC3)nn1C)CS2,,"inconclusive: 39.8 µM [inhibitor, partial curve]"
COc1ccc(OC)c(/C=C(\C#N)c2nc3ccccc3c(=O)[nH]2)c1,,"inconclusive: 35.5 µM [inhibitor, partial curve]"

SMILES,"activity change, negative = inhibition",Potency
COc1ccc(NC(=O)CCc2c(C)nc3cc(-c4cccc(F)c4)nn3c2C)cc1Cl,inactive: 0.309%,
CCOc1ccc(CNCCSc2nnnn2C)cc1OC,inactive: -1.41%,
CCOC(=O)c1ccc(-c2ccc(/C=C(\C#N)C(=O)Nc3cccc(C)c3)o2)cc1,inactive: 3.63%,
Cc1cc(C)cc(-n2c(SCC(=O)N3CCc4ccccc43)nc3c([nH]c4ccccc43)c2=O)c1,inactive: -2.62%,
CCOc1ccccc1NC(=O)COC(=O)CC(C)(C)CC1=NS(=O)(=O)c2ccccc2N1,inactive: -1.89%,
COc1cc(OC)c(NC(=O)c2sc3nc4n(c(=O)c3c2C)CCCC4)cc1Cl,,"inconclusive: 31.6 µM [inhibitor, full curve]"
Cc1ccc(C2C=C(c3ccccc3)Nc3nc(NS(C)(=O)=O)nn32)cc1 (centres undefined),,"inconclusive: 50.1 µM [inhibitor, partial curve]"
COc1cc(OC)c(N(C)C(=O)c2sc3nc4n(c(=O)c3c2C)CCCC4)cc1Cl,,"inconclusive: 50.1 µM [inhibitor, partial curve]"
Cc1cc(Br)ccc1NC(=O)c1sc2nc3n(c(=O)c2c1C)CCCC3,,"inconclusive: 56.2 µM [inhibitor, partial curve]"
Cc1ccc(C2C=C(c3ccccc3)Nc3nc(NS(=O)(=O)c4ccccc4)nn32)cc1 (centres undefined),,"inconclusive: 50.1 µM [inhibitor, partial curve]"
COc1ccc(C(=O)Nc2ccc(-c3nc4cc(C)ccc4o3)c(O)c2)cc1,inactive: -1.75%,
CC(=O)Nc1ccc(C(=O)CSc2nnc3cc(C)c4ccccc4n23)cc1,inconclusive: -0.628% [inhibitor],
CCOC(=O)c1c(NC(=O)c2nc(S(C)(=O)=O)ncc2Cl)sc(C(C)=O)c1C,inactive: -5.54%,
COc1ccc(NC(=O)c2nc(-c3ccc(C)cc3)n3c2CCCCC3)cc1,,"inconclusive: 50.1 µM [inhibitor, partial curve]"
Brc1ccc(-c2nc3ccccn3c2Nc2ccc3c(c2)OCCO3)o1,,"inconclusive: 50.1 µM [inhibitor, partial curve]"
Cc1c(C(=O)NCc2ccccc2)sc2nc3n(c(=O)c12)CCCCC3,,"inconclusive: 31.6 µM [inhibitor, full curve, poor fit]"
Cc1cccc(CCNC(=O)c2sc3nc4n(c(=O)c3c2C)CCCC4)c1,,"inconclusive: 44.7 µM [inhibitor, partial curve]"

# Three compounds already listed, arranged by SMILES length, low to high.
SMILES,"activity change, negative = inhibition",Potency
Brc1ccc(-c2nc3ccccn3c2Nc2ccc3c(c2)OCCO3)o1,,"inconclusive: 50.1 µM [inhibitor, partial curve]"
Cc1cccc(CCNC(=O)c2sc3nc4n(c(=O)c3c2C)CCCC4)c1,,"inconclusive: 44.7 µM [inhibitor, partial curve]"
COc1ccc(C(=O)Nc2ccc(-c3nc4cc(C)ccc4o3)c(O)c2)cc1,inactive: -1.75%,
